# Literature values, collected in patent publication US12383549B2, “Combination therapy of crenolanib and apoptosis pathway agents for the treatment of proliferative disorders” (Arog Pharmaceuticals, Inc., priority 2020, dated 2025).
# Read-outs that look alike come from different tables or passages of the source. At least one compound was matched to its structure with a doubt left.
# Legend:
# [1] = tested on: cells expressing mutated FLT3 (FLT3-ITD); conditions: cited from earlier work
# [2] = tested on: AML patients with FLT3 mutations; conditions: cited from earlier work
# [3] = patients who initially responded to venetoclax therapy but relapsed within 12 months
smiles,measurement,setting,value
CO[C@@H]1[C@H](N(C)C(=O)c2ccccc2)C[C@H]2O[C@]1(C)n1c3ccccc3c3c4c(c5c6ccccc6n2c5c31)C(=O)NC4 [midostaurin],cell viability: sensitivity or resistance,[1]; single agent,sensitive
CC1(C)CCC(CN2CCN(c3ccc(C(=O)NS(=O)(=O)c4ccc(NCC5CCOCC5)c([N+](=O)[O-])c4)c(Oc4cnc5[nH]ccc5c4)c3)CC2)=C(c2ccc(Cl)cc2)C1 [venetoclax],cell viability: sensitivity or resistance,[1]; single agent,resistant
same,cell viability: sensitivity or resistance,[1]; venetoclax-azacitidine combination,remain resistant
same,cell viability: sensitivity or resistance,[1]; venetoclax-cytarabine combination,remain resistant
same,patients showing expansion of the mutated FLT3 clone at relapse,[2]; [3],16%
same,patients who acquired new FLT3 mutations at relapse,[2]; [3],8%
same,patients achieving a durable remission (lasting at least 12 months),"[2]; venetoclax combination therapy, patients with FLT3 mutations at baseline",1 of 9
